No constants are given. Whether binding was seen depends on the method and setting. Sequences can lack the tags named with a protein.
Legend:
[1] = molecular target: S. cerevisiae pseudouridine synthase PUS1 D134A, catalytically inactive, tagless (S. cerevisiae) (UniProt Q12211); experiment: crystal structure
[2] = molecular target: S. cerevisiae pseudouridine synthase PUS1, wild type, tagless (S. cerevisiae) (UniProt Q12211); experiment: crystal structure

| Binder | binding [1] | binding [2] |
| --- | --- | --- |
| S. cerevisiae pseudouridine synthase PUS1 D134A, catalytically inactive, tagless (enzyme, UniProt Q12211 1-544) MSEENLRPAYDDQVNEDVYKRGAQSKLTKARKADFDDEKDKKKDNDKHIDKRPKSGPRLDENGNPLPKEPRLPKRKVAVMVGYCGTGYHGMQYNPPNPTIESALFKAFVEAGAISKDNSNDLKKNGFMRAARTAKGVHAGGNLISLKMIIEDPDIKQKINEKLPEGIRVWDIERVNKAFDCRKMCSSRWYEYLLPTYSLIGPKPGSILYRDIEESKTELPGVLDEDLESKEFWEEFKKDANEKFSTEEIEAILAYVPPARDEFDINEELYQKVKKYKQLENAHRRRYRISAAKLAKFRASTSQYLGAHNFHNFTLGKDFKEPSAIRFMKDIKVSDPFVIGDAQTEWISIKIHGQSFMLHQIRKMVSMATLITRCGCPVERISQAYGQQKINIPKAPALGLLLEAPVFEGYNKRLEQFGYKAIDFSKYQDEVDKFKMKHIYDKIYKEEVDENVFNAFFSYIDSFNKVTGAQGEETADKSGPAVQKSIFEFLTAKGIPGLTDAPESNKKIKQRKRMEEEEAASKKAEISSTTQSNEPEVQPEAAAN | no binding | – |
| S. cerevisiae pseudouridine synthase PUS1, wild type, tagless (enzyme, UniProt Q12211 1-544) MSEENLRPAYDDQVNEDVYKRGAQSKLTKARKADFDDEKDKKKDNDKHIDKRPKSGPRLDENGNPLPKEPRLPKRKVAVMVGYCGTGYHGMQYNPPNPTIESALFKAFVEAGAISKDNSNDLKKNGFMRAARTDKGVHAGGNLISLKMIIEDPDIKQKINEKLPEGIRVWDIERVNKAFDCRKMCSSRWYEYLLPTYSLIGPKPGSILYRDIEESKTELPGVLDEDLESKEFWEEFKKDANEKFSTEEIEAILAYVPPARDEFDINEELYQKVKKYKQLENAHRRRYRISAAKLAKFRASTSQYLGAHNFHNFTLGKDFKEPSAIRFMKDIKVSDPFVIGDAQTEWISIKIHGQSFMLHQIRKMVSMATLITRCGCPVERISQAYGQQKINIPKAPALGLLLEAPVFEGYNKRLEQFGYKAIDFSKYQDEVDKFKMKHIYDKIYKEEVDENVFNAFFSYIDSFNKVTGAQGEETADKSGPAVQKSIFEFLTAKGIPGLTDAPESNKKIKQRKRMEEEEAASKKAEISSTTQSNEPEVQPEAAAN | – | no binding |

Reference: paper doi:10.1101/2021.12.08.471817
